Bridge positions count the residues as written; N and C are the ends. Peptide text beside a SMILES is read from it.
Experiment: Circular dichroism of isolated peptides
Type: physicochemical
Settings: unbound peptide, 250 μM, 20 mM sodium phosphate, pH 7.55, 20 °C; for [θ]MRE‐222: CD

Row | Compound | [θ]MRE‐222 [deg cm^2 dmol^−1] | % helicity (CD) [%]
1 | CC(=O)N[C@@H](CC(C)C)C(=O)N[C@@H](CCC(N)=O)C(=O)NCC(=O)N[C@H]1CSSC[C@@H](C(=O)N[C@@H](C)C(=O)N[C@@H](CC(C)C)C(=O)N[C@@H](CC(=O)O)C(=O)N[C@@H](CCC(N)=O)C(=O)N[C@H](C(=O)N[C@@H](CC(N)=O)C(N)=O)C(C)C)NC(=O)[C@H](CC(C)C)NC(=O)[C@H](CC(C)C)NC(=O)[C@H](CCC(=O)O)NC1=O [HIF‐1α812–826 oxE816C‐R820C] (Ac-LQGCELLCALDQVN-NH2; disulfide 4-8) | −3766 | 11
2 | CC(=O)N[C@@H](CC(C)C)C(=O)N[C@@H](CCC(N)=O)C(=O)NCC(=O)N[C@@H](CS)C(=O)N[C@@H](CCC(=O)O)C(=O)N[C@@H](CC(C)C)C(=O)N[C@@H](CC(C)C)C(=O)N[C@@H](CS)C(=O)N[C@@H](C)C(=O)N[C@@H](CC(C)C)C(=O)N[C@@H](CC(=O)O)C(=O)N[C@@H](CCC(N)=O)C(=O)N[C@H](C(=O)N[C@@H](CC(N)=O)C(N)=O)C(C)C [HIF‐1α812–826 redE816C‐R820C] (Ac-LQGCELLCALDQVN-NH2) | −3375 | 10
3 | Ac-LQGEELLRALDQVN-NH2 [wt‐HIF‐1α812–826, wild‐type HIF‐1α helix 3 peptide, N‐acetyl, C‐terminal amide] | −3954 | 12
